± gives the standard deviation of the averaged measurements. This is a selection; strong and weak results do not stand in their true shares.
Key:
Assay in all cases: NP40-soluble protein abundance relative to vehicle (solubility fold change) (ratio); higher = more soluble protein in presence of AMP-PNP
ACAD9 = target: T1, ACAD9 (UniProt Q9H845)
T1 sequence (whole entry): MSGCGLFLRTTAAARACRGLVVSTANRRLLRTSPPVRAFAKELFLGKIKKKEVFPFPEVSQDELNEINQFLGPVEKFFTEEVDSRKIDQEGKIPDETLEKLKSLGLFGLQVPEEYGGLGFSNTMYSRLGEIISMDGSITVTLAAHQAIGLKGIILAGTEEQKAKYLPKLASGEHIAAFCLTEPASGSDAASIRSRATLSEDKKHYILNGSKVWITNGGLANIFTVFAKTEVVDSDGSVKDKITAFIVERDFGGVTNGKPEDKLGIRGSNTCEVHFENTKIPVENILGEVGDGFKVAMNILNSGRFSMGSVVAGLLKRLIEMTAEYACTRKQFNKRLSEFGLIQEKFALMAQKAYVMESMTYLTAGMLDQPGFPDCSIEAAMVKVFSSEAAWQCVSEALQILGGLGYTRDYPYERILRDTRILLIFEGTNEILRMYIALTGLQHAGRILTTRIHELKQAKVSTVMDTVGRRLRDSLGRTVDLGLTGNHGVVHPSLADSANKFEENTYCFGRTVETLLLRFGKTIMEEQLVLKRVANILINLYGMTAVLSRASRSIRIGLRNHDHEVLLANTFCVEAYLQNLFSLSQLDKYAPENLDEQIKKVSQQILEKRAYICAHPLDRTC
Outline: (§1)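 Crude Jurkat lysate, prepared by Dounce homogenisation, was exposed to eight concentrations from 0.1 to 10 mM for 10 min at room temperature and then 3 min at 37 °C. Solubilisation used 0.8% NP40 with benzonase for 60 min at 4 °C, followed by ultracentrifugation and TMT labelling of the supernatant for LC-MS/MS. After vsn normalisation of intensities, each value is the fold change against the detergent-processed vehicle within each replicate, across three independent experiments.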

CSTF2T = target: T2, CSTF2T (UniProt Q9H0L4)
T2 sequence (whole entry): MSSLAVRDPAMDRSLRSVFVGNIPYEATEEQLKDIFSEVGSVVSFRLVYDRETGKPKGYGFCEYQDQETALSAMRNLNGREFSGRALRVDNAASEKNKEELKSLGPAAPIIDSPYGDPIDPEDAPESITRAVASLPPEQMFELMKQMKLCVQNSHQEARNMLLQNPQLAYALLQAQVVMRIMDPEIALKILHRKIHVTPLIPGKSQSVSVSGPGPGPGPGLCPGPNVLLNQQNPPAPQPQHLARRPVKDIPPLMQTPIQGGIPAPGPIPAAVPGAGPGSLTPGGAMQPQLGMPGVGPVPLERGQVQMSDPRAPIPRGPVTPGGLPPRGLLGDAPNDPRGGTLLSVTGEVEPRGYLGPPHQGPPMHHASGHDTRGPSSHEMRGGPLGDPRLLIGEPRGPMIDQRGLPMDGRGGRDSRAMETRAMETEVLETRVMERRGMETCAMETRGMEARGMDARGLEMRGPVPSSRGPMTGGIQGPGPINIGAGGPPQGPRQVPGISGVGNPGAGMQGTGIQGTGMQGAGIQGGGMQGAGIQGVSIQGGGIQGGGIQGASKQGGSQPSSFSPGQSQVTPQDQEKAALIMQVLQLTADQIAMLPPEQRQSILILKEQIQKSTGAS
Outline: as §1

DCP1A = target: T3, DCP1A (UniProt Q9NPI6)
T3 sequence (whole entry): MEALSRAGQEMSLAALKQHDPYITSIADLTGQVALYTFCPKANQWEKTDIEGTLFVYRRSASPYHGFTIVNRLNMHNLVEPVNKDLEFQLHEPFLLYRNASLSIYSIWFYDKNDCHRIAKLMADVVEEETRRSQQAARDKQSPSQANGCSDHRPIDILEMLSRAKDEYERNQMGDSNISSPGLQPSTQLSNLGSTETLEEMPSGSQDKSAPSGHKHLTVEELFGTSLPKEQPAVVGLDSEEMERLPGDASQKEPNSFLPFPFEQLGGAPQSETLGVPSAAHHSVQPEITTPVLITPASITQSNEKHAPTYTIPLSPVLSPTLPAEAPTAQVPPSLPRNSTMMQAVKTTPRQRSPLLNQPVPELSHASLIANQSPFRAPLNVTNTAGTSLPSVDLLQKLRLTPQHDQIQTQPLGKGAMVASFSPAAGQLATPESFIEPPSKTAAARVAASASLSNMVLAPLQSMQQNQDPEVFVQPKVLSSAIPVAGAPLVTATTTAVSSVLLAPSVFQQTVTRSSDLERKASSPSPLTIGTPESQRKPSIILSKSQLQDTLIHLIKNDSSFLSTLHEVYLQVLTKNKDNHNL
Outline: as §1

DNTTIP1 = target: T4, DNTTIP1 (UniProt Q9H147)
T4 sequence (whole entry): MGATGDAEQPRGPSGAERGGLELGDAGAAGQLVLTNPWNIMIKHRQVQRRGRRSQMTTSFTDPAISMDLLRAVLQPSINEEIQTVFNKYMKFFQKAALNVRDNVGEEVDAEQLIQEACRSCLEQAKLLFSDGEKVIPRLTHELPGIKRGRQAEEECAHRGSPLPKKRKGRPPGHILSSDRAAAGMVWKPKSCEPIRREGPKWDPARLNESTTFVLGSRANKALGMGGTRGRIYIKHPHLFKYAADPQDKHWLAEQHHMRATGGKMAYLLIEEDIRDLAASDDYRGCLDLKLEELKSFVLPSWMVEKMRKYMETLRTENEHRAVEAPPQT
Outline: as §1

PLEKHF2 = target: T5, PLEKHF2 (UniProt Q9H8W4)
T5 sequence (whole entry): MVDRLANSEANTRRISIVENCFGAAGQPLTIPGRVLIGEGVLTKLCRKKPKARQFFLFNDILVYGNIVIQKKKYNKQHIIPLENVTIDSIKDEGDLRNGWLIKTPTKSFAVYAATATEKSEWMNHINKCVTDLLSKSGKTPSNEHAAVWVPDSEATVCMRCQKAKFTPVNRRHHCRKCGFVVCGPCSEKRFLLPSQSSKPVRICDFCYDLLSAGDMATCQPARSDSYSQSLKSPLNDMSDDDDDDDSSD
Outline: as §1

SMILES: Nc1ncnc2c1ncn2[C@@H]1O[C@H](COP(=O)(O)OP(=O)(O)NP(=O)(O)O)[C@@H](O)[C@H]1O [adenylyl imidodiphosphate]
- NP40-soluble protein abundance (ACAD9; concentration: 1mM): 0.96 ± 0.02
- NP40-soluble protein abundance (ACAD9; concentration: 2mM): 0.946 ± 0.027
- NP40-soluble protein abundance (ACAD9; concentration: 4mM): 0.924 ± 0.034
- NP40-soluble protein abundance (ACAD9; concentration: 6mM): 0.9939 ± 0.0021
- NP40-soluble protein abundance (ACAD9; concentration: 8mM): 0.965 ± 0.015
- NP40-soluble protein abundance (ACAD9; concentration: 10mM): 0.981 ± 0.055
- NP40-soluble protein abundance (CSTF2T; concentration: 1mM): 1.01 ± 0.029
- NP40-soluble protein abundance (CSTF2T; concentration: 2mM): 1.09 ± 0.085
- NP40-soluble protein abundance (CSTF2T; concentration: 4mM): 1.04 ± 0.014
- NP40-soluble protein abundance (CSTF2T; concentration: 6mM): 1.02 ± 0.036
- NP40-soluble protein abundance (CSTF2T; concentration: 8mM): 1.01 ± 0.037
- NP40-soluble protein abundance (CSTF2T; concentration: 10mM): 1 ± 0.023
- NP40-soluble protein abundance (DCP1A; concentration: 1mM): 1 ± 0.044
- NP40-soluble protein abundance (DCP1A; concentration: 2mM): 1.02 ± 0.011
- NP40-soluble protein abundance (DCP1A; concentration: 4mM): 1.02 ± 0.017
- NP40-soluble protein abundance (DCP1A; concentration: 6mM): 1.03 ± 0.037
- NP40-soluble protein abundance (DCP1A; concentration: 8mM): 0.998 ± 0.011
- NP40-soluble protein abundance (DCP1A; concentration: 10mM): 1.02 ± 0.023
- NP40-soluble protein abundance (DNTTIP1; concentration: 1mM): 1.03 ± 0.037
- NP40-soluble protein abundance (DNTTIP1; concentration: 2mM): 1.02 ± 0.042
- NP40-soluble protein abundance (DNTTIP1; concentration: 4mM): 1 ± 0.041
- NP40-soluble protein abundance (DNTTIP1; concentration: 6mM): 0.973 ± 0.017
- NP40-soluble protein abundance (DNTTIP1; concentration: 8mM): 0.958 ± 0.032
- NP40-soluble protein abundance (DNTTIP1; concentration: 10mM): 0.989 ± 0.035
- NP40-soluble protein abundance (PLEKHF2; concentration: 1mM): 0.981 ± 0.04
- NP40-soluble protein abundance (PLEKHF2; concentration: 2mM): 1.01 ± 0.06
- NP40-soluble protein abundance (PLEKHF2; concentration: 4mM): 1 ± 0.018
- NP40-soluble protein abundance (PLEKHF2; concentration: 6mM): 1 ± 0.075
- NP40-soluble protein abundance (PLEKHF2; concentration: 8mM): 1.01 ± 0.025
- NP40-soluble protein abundance (PLEKHF2; concentration: 10mM): 1.01 ± 0.029

Reference: the supplement of paper PMC6411743
